Experimental data reported in patent publication EP0280610B1, “Dipeptides, preparation process and use in dosing proteases” (SERBIO, priority 1987, dated 1992).
Structures can show the parent of a compound that is named as a salt. Not every detail of the peptide structures is certain; ends, links or a residue may be inferred.

Test system: Protéine C bovine
Test: Hydrolysis rate of chromogenic substrates by activated bovine protein C (pNA release, OD at 405 nm)
Assay type: biochemical
Details: compared with reference product A4; underlying results expressed in ΔOD/minute at 405 nm, TEA buffer pH 8,4
Description: L'activité des dipeptides suivant l'invention et des tripeptides consignés dans le tableau I a été étudiée sur la thrombine humaine, la plasmine humaine, le Facteur Xa humaine et la Protéine C bovine, les tripeptides A1-A4 étant les substrats de référence du commerce. La libération du marquer HR₁ (i.e. amine H₂NRʹ₁), qui est objectivée par la variation de OD pendant l'hydrolyse enzymatique des substrats, sert d'outil de comparaison.
La lecture de OD est en général effectuée à 300-470 nm, et plus précisément à 405 nm quand R₁ est pNA, pendant environ 5 minutes.
Les essais ont été réalisés sur appareil GILFORD 203 S pour automatiser la lecture des échantillons et standardiser leur traitement.
On prépare des solutions dans du sérum physiologique renfermant chacune un enzyme : thrombine humaine 3 UNIH/ml Facteur Xa humain 3,7 nkat/ml plasmine humaine 2,3 nkat/ml protéine C bovine activée 10µg/ml
On dissout chaque peptide à tester dans le l'eau à une concentration de 10 mg/ml.
400 µl d'enzyme dilué au 1/2 dans du tampon TEA (pH 8,4) sont ajoutés à 200 µl de chacun des différents peptides à tester. On détermine les vitesses d'hydrolyse desdits substrats en suivant l'évolution de la libération de pNA. Cette évolution peut être suivie par la lecture de la varition de OD par unité de temps (ΔOD/minute) à 405 nm.

COC(=O)CC(=O)N1CCC[C@H]1C(=O)N[C@@H](CCCNC(=N)N)C(=O)Nc1ccc([N+](=O)[O-])cc1 [EX 1, MM-L-Pro-L-Arg-pNA, H-TFA]
sensibilité à la protéine C: plus sensibles à la protéine C que le produit de référence A4
